{
  "sequences": {"note": "Protein sequences, listed by entry. Tags and fused reporters are not part of them.", "UniProt Q92597": "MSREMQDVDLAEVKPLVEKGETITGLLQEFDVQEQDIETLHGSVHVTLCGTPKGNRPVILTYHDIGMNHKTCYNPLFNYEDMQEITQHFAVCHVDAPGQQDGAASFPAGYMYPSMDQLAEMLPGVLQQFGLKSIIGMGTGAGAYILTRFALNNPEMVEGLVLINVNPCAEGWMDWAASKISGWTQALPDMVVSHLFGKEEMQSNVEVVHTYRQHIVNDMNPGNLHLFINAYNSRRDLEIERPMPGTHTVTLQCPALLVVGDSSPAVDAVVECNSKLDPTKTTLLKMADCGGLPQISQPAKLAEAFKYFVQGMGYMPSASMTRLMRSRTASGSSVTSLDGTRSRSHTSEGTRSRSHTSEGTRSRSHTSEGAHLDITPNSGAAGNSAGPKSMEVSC"},
  "source": "paper PMC11261793",
  "experiment_in_all_cases": "co-IP; 400 μg whole cell lysate (Pierce IP lysis buffer) of PANC-1 vector control and NDRG1 overexpressing cells incubated overnight at 4 °C with NDRG1, PKCα or β-catenin antibody or isotype control antibody; protein A/G magnetic beads 1.5 h/4 °C; washed 5 times with ice-cold PBS; western blotting",
  "key": {"[1]": {"target": "N-myc downstream regulated gene-1 (NDRG1), FLAG-tagged (UniProt Q92597)"}, "[2]": {"target": "protein kinase Cα (PKCα) (human (endogenous in PANC-1)) (UniProt P17252)"}, "[3]": {"target": "β-catenin (human (endogenous in PANC-1)) (UniProt P35222)"}},
  "note": "These are yes or no findings as the source states them, for the method shown. In cells and extracts the contact can be indirect. Some results given as binding are weak or reduced against the parent protein; the word gives no strength.",
  "data": [
    {"substance": "β-catenin (from UniProt P35222 1-781)", "values": [
      {"measurement": "binding", "setting": "[1]", "value": "binds"},
      {"measurement": "binding", "setting": "[2]", "value": "binds"}
    ]},
    {"substance": "protein kinase Cα (PKCα) (from UniProt P17252 1-672) (enzyme)", "values": [
      {"measurement": "binding", "setting": "[3]", "value": "binds"},
      {"measurement": "binding", "setting": "[1]", "value": "binds"}
    ]}
  ]
}
